Results deposited as PubChem BioAssay AID504764 (Drosophila RNAi Screening Center, 2011)
The screen tested about 22,000 reagents; this is a random part of those with a known target gene and a result. Of all reagents, 403 (1.9%) were called active. 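Unnormalised raw counts per well; ratio z-scores behind the hit calls and whether each hit raises or lowers signal are not deposited.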 A plus sign joins genes that one reagent is predicted to hit. Not stated in the record: the amount of reagent.

- Test: 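Knock-downs that raise or lower a Notch target reporter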 (primary screen)
- Cells: Drosophila Kc167 cells
- Reagents: long dsRNA against Drosophila genes
- Timing: about 5 days (4 days dsRNA, then 24 h after transfection)
- Conditions: transfection of constitutively active membrane-tethered Notch lacking the extracellular domain, read 24 h later
- Measurement: 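Firefly luciferase from an E(spl)m3 reporter with active Notch, plus control-promoter and uninduced reporter wells for normalisation; unnormalised counts, duplicate wells a and b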
- Reading the numbers: induced reporter light, run 1, well a and induced reporter light, run 1, well b: higher = more light from the Notch target reporter with active Notch; control promoter light, run 1, well a and control promoter light, run 1, well b: higher = more light from the viral control promoter (cell number, transfection, viability); uninduced reporter light, run 1, well a: higher = more light from the Notch target reporter without active Notch
- Hit rule: 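Wells with low control signal or poorly matching duplicates excluded; duplicates averaged; per source plate, z beyond ±2 for induced/control log2 ratio or beyond ±1.8 for induced/uninduced marks a hit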
- Meaning of the calls: active = modifier hit (raised or lowered Notch signal); inactive = not a hit

How did the screen score CG32213 + CG12519 + 825-Oak + 1 more [DRSC09615]?
induced reporter light, run 1, well a: 3.12e5; induced reporter light, run 1, well b: 3.21e5; control promoter light, run 1, well a: 4.06e5; control promoter light, run 1, well b: 3.19e5; uninduced reporter light, run 1, well a: 23200; call: inactive

For Fatp2 [DRSC03971], how do the results read?
induced reporter light, run 1, well a: 1.15e5; induced reporter light, run 1, well b: 1.04e5; control promoter light, run 1, well a: 89475; control promoter light, run 1, well b: 1.27e5; uninduced reporter light, run 1, well a: 8925; call: inactive

With Fatp2 [DRSC04178], what does the deposit list?
induced reporter light, run 1, well a: 1.80e5; induced reporter light, run 1, well b: 1.67e5; control promoter light, run 1, well a: 1.41e5; control promoter light, run 1, well b: 1.47e5; uninduced reporter light, run 1, well a: 13380; call: inactive

Which result is listed for Fatp2 [DRSC04330]?
induced reporter light, run 1, well a: 1.68e5; induced reporter light, run 1, well b: 1.37e5; control promoter light, run 1, well a: 1.44e5; control promoter light, run 1, well b: 1.35e5; uninduced reporter light, run 1, well a: 12040; call: inactive

With CG17104 [DRSC02573], what does the deposit list?
induced reporter light, run 1, well a: 2.71e5; induced reporter light, run 1, well b: 3.51e5; control promoter light, run 1, well a: 3.35e5; control promoter light, run 1, well b: 3.22e5; uninduced reporter light, run 1, well a: 20545; call: inactive

With comt [DRSC20319], what does the deposit list?
induced reporter light, run 1, well a: 1.19e5; induced reporter light, run 1, well b: 1.06e5; control promoter light, run 1, well a: 2.52e5; control promoter light, run 1, well b: 2.30e5; uninduced reporter light, run 1, well a: 9500; call: inactive

What is on record for SMC6 [DRSC15829]?
induced reporter light, run 1, well a: 1.65e5; induced reporter light, run 1, well b: 1.67e5; control promoter light, run 1, well a: 1.86e5; control promoter light, run 1, well b: 1.50e5; uninduced reporter light, run 1, well a: 15210; call: inactive

For CG4854 [DRSC15663], how do the results read?
induced reporter light, run 1, well a: 1.97e5; induced reporter light, run 1, well b: 1.89e5; control promoter light, run 1, well a: 2.03e5; control promoter light, run 1, well b: 2.10e5; uninduced reporter light, run 1, well a: 13015; call: inactive

For kcc [DRSC04316], what was measured?
induced reporter light, run 1, well a: 1.96e5; induced reporter light, run 1, well b: 2.14e5; control promoter light, run 1, well a: 1.97e5; control promoter light, run 1, well b: 2.10e5; uninduced reporter light, run 1, well a: 17955; call: inactive

For kcc [DRSC04516], what was measured?
induced reporter light, run 1, well a: 2.24e5; induced reporter light, run 1, well b: 1.88e5; control promoter light, run 1, well a: 1.84e5; control promoter light, run 1, well b: 1.56e5; uninduced reporter light, run 1, well a: 13900; call: inactive

How did the screen score CG14323 [DRSC14802]?
induced reporter light, run 1, well a: 2.69e5; induced reporter light, run 1, well b: 2.80e5; control promoter light, run 1, well a: 2.65e5; control promoter light, run 1, well b: 2.83e5; uninduced reporter light, run 1, well a: 25950; call: inactive

What is on record for Fs [DRSC06258]?
induced reporter light, run 1, well a: 74740; induced reporter light, run 1, well b: 91520; control promoter light, run 1, well a: 1.82e5; control promoter light, run 1, well b: 2.64e5; uninduced reporter light, run 1, well a: 9425; call: active

With Fs [DRSC06259], what does the deposit list?
induced reporter light, run 1, well a: 59990; induced reporter light, run 1, well b: 67745; control promoter light, run 1, well a: 76885; control promoter light, run 1, well b: 86230; uninduced reporter light, run 1, well a: 8400; call: inactive

With Nna1 [DRSC19404], what was measured?
induced reporter light, run 1, well a: 1.12e5; induced reporter light, run 1, well b: 98350; control promoter light, run 1, well a: 1.24e5; control promoter light, run 1, well b: 1.57e5; uninduced reporter light, run 1, well a: 7232; call: inactive

With CG13053 [DRSC09934], what does the deposit list?
induced reporter light, run 1, well a: 1.39e5; induced reporter light, run 1, well b: 1.52e5; control promoter light, run 1, well a: 2.01e5; control promoter light, run 1, well b: 1.39e5; uninduced reporter light, run 1, well a: 8335; call: inactive

2 consecutive entries from above, for reference:
CG14323 [DRSC14802] — induced reporter light, run 1, well a = 2.69e5; induced reporter light, run 1, well b = 2.80e5; control promoter light, run 1, well a = 2.65e5; control promoter light, run 1, well b = 2.83e5; uninduced reporter light, run 1, well a = 25950; call = inactive
Fs [DRSC06258] — induced reporter light, run 1, well a = 74740; induced reporter light, run 1, well b = 91520; control promoter light, run 1, well a = 1.82e5; control promoter light, run 1, well b = 2.64e5; uninduced reporter light, run 1, well a = 9425; call = active

The listing continues:
What is on record for CG11726 [DRSC09858]?
induced reporter light, run 1, well a: 3.07e5; induced reporter light, run 1, well b: 2.36e5; control promoter light, run 1, well a: 3.09e5; control promoter light, run 1, well b: 2.87e5; uninduced reporter light, run 1, well a: 16250; call: inactive

Which result is listed for Dlish [DRSC06016]?
induced reporter light, run 1, well a: 1.28e5; induced reporter light, run 1, well b: 89475; control promoter light, run 1, well a: 92260; control promoter light, run 1, well b: 1.57e5; uninduced reporter light, run 1, well a: 11160; call: inactive

For CBP [DRSC17746], what was measured?
induced reporter light, run 1, well a: 2.08e5; induced reporter light, run 1, well b: 2.06e5; control promoter light, run 1, well a: 2.23e5; control promoter light, run 1, well b: 2.25e5; uninduced reporter light, run 1, well a: 15255; call: inactive

With CG9003 [DRSC07317], what was measured?
induced reporter light, run 1, well a: 1.04e5; induced reporter light, run 1, well b: 1.22e5; control promoter light, run 1, well a: 1.29e5; control promoter light, run 1, well b: 1.57e5; uninduced reporter light, run 1, well a: 12015; call: inactive

With CG6470 [DRSC19994], what does the deposit list?
induced reporter light, run 1, well a: 1.24e5; induced reporter light, run 1, well b: 1.31e5; control promoter light, run 1, well a: 90595; control promoter light, run 1, well b: 58830; uninduced reporter light, run 1, well a: 10150; call: inactive

How did the screen score Taf1 [DRSC12607]?
induced reporter light, run 1, well a: 61045; induced reporter light, run 1, well b: 68275; control promoter light, run 1, well a: 47840; control promoter light, run 1, well b: 50385; uninduced reporter light, run 1, well a: 4460; call: inactive

With GlcAT-I [DRSC17307], how do the results read?
induced reporter light, run 1, well a: 55150; induced reporter light, run 1, well b: 68645; control promoter light, run 1, well a: 70660; control promoter light, run 1, well b: 82970; uninduced reporter light, run 1, well a: 4765; call: inactive

With CG11523 [DRSC11669], what was measured?
induced reporter light, run 1, well a: 1.37e5; induced reporter light, run 1, well b: 1.29e5; control promoter light, run 1, well a: 86445; control promoter light, run 1, well b: 96730; uninduced reporter light, run 1, well a: 9125; call: inactive

What is on record for bnl [DRSC13377]?
induced reporter light, run 1, well a: 79315; induced reporter light, run 1, well b: 63610; control promoter light, run 1, well a: 95730; control promoter light, run 1, well b: 67030; uninduced reporter light, run 1, well a: 9515; call: inactive

What did the screen give for bnl [DRSC16913]?
induced reporter light, run 1, well a: 10255; induced reporter light, run 1, well b: 9895; control promoter light, run 1, well a: 11415; control promoter light, run 1, well b: 12335; uninduced reporter light, run 1, well a: 5175; call: inactive
